In PubChem BioAssay AID493014 (National Center for Advancing Translational Sciences (NCATS), 2011) one finds AC50 data, which are given here for 16 compounds.

This assay in a line: qHTS Assay to Find Inhibitors of Chronic Active B-Cell Receptor Signaling. As to conditions: ABC-DLBCL IkBa-CBG/CBR reporter, luminescence ratio (green luciferase fused to IkBa over red control in TMD8 lymphoma cells), 4 h. An outline of the steps: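 Cell line TMD8 (human ABC DLBCL), stably expressing tet-inducible CBG68-IkBa fusion and CBR; IMDM/0.5% FBS; cpd up to 46 uM; dox induction, 4 h, 37C/5% CO2; dual luminescence; green/red ratio; MG132 control.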
On the technique in general: qHTS replaces the single test concentration by a dilution series.

[1] abbreviates: measured here: CBR red luminescence, cell number.
[2] abbreviates: measured here: IkBa-CBG green luminescence.

Some of the results follow. Shown are side measurements of this screen, not its main read-out; they come without a call. Compounds called inactive in the main read-out are mostly missing here. Potencies come from curve fits of mixed quality, noted in brackets.

For orientation: AC50 means the concentration at which the activity in the assay is half-maximal.

As to `COc1ccc(C(C)(C)C)cc1NC(=O)CSc1ncn[nH]1`, the AC50 under setting [1] was 2.91 µM [rising, single point]. The same measure, in the same setting: to `O=C(COC(=O)C1CCN(S(=O)(=O)c2cccs2)CC1)c1ccccc1` belongs 0.501 µM [rising, full curve, poor fit]. For `CCOCCCNC(=O)c1ccc2nc(-c3ccc(OC)c(OC)c3)c(-c3ccc(OC)c(OC)c3)nc2c1`, the AC50 is, setting by setting: under setting [1], 11.2 µM [rising, partial curve, poor fit]; under setting [2], 22.4 µM [falling, partial curve, poor fit]. As for `CC(=O)NC[C@H]1CN(c2ccc(N3CCOCC3)c(F)c2)C(=O)O1`, the AC50 under setting [1] was 2.24 µM [rising, full curve, poor fit].

For the compound `O=C(COC(=O)c1ccc(F)c([N+](=O)[O-])c1)NC(=O)NCc1ccccc1`, under setting [1], the AC50 is 11.6 µM [falling, single point].

For `CC(C)CC(COCc1ccc(Cl)cc1)N1CCN(C(=O)c2ccc(Cl)cc2Cl)CCC1=O` (stereo not drawn), the AC50 under setting [1] was 18.4 µM [falling, single point]. On the same count and under the same terms, in the case of `COc1ccc(CCn2c(N)c(C(=O)NCc3ccco3)c3nc4ccccc4nc32)cc1OC` it was 11.2 µM [falling, partial curve, poor fit]; in that of `O=C(C1=C[C@@H](C2CC2)C[C@@H](OCCCCO)O1)N1CCOCC1`, 3.55 µM [rising, partial curve, poor fit]; in that of `Oc1cccc(/C=N\Nc2nncc(-c3ccccc3)n2)c1`, 2 µM [falling, full curve]. With `CCc1ccc(N/C(SCc2cccc(F)c2)=C(/C#N)C(=O)NCc2ccco2)cc1`, the AC50 under setting [1] was 10 µM [falling, partial curve].

As to `C(=N\Nc1nc2ccccc2[nH]1)/c1ccc2ncccc2c1`, the AC50 under setting [1] was 14.1 µM [falling, single point]. Turning to `On1onc2c3cc(-c4ccccc4)nc3ccc21`, the AC50 under setting [1] is 14.6 µM [falling, single point]. The same measure, in the same setting: to `CCOc1cc(/C=N/Nc2cccc(C(=O)O)c2)ccc1OCC(=O)N1CCCCC1` belongs 35.5 µM [falling, partial curve, poor fit]; to `CC(C)(C)c1cc(S(=O)(=O)CCc2ccccn2)cc(C(C)(C)C)c1F`, 13 µM [falling, partial curve, poor fit]. On to `CC(=O)Nc1ccc2nc(-c3cccnc3)[nH]c2c1`, for which the concentration at half-maximal activity (AC50) under setting [1] is 29.1 µM [falling, single point] and the AC50 under setting [2] is 23.1 µM [rising, partial curve, poor fit]. In the case of `CN(CCc1cn[nH]c1)Cc1nc(C(c2ccccc2)c2ccccc2)no1`, the half-maximal activity concentration (AC50) under setting [1] was 35.5 µM [falling, single point].
